Laboratory results as given in PMC11257983 (2024).
Residue numbers refer to the chain shown, from its start. Numbers in names are those of the source. These are yes or no findings as the source states them, for the method shown. For some of these results: Binding seen in cells or lysates may run through a third protein. Some results given as binding are weak or reduced against the parent protein; the word gives no strength. For some of these results: Tags and fused reporters may be left off the sequences shown. Blank lines part the entries; values can stand above or below the molecule they belong to.

The chains behind the UniProt entries cited, without tags or fusion partners. Where a name states a change or a piece, a line headed by the entry shows the natural chain unless it says otherwise.
UniProt Q24324: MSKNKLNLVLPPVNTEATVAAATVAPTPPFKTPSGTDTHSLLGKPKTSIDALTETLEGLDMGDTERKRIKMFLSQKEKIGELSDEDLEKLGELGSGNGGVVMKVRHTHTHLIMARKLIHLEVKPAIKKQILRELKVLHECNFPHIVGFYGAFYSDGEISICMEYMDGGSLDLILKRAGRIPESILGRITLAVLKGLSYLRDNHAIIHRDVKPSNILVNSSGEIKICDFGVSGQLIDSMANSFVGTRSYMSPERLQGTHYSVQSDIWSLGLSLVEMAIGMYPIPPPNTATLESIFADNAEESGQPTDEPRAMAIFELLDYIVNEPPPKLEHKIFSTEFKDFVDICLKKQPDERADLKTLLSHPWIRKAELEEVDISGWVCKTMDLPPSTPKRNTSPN

Columns and labels:
[1] = target: T1, Flag-CNK^2–549 (Drosophila) (UniProt Q7KNQ9); experiment: pull-down; GST-HYP as bait, CNK, KSR and MEK variants co-expressed in S2 cells (Fig. 2c,d; Extended Data Fig. 7e); total lysates, overnight at 4 °C; immunoblot
T1 sequence: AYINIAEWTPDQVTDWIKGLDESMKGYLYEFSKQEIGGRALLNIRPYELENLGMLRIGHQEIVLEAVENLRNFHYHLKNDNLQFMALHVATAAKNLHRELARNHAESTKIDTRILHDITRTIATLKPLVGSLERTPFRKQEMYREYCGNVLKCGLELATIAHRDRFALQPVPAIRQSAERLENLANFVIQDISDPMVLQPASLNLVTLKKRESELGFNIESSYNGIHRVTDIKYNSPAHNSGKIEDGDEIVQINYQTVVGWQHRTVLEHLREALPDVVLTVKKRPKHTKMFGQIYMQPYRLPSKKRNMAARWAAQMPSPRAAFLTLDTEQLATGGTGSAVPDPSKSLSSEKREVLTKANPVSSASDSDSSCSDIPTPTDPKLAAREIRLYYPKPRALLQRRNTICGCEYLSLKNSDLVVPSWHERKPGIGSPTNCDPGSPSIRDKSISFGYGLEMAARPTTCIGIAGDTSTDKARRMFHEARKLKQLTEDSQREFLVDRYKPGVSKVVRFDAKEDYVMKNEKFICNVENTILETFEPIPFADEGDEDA

V5-KSR (Drosophila) = target: T2, V5-KSR (Drosophila) (UniProt Q24171); experiment: co-IP; anti-V5 immunoprecipitation of V5-KSR from S2 total lysates, protein A/G agarose, overnight at 4 °C; MEK blotted; without or with co-expressed CNK^2–549–HYP
T2 sequence: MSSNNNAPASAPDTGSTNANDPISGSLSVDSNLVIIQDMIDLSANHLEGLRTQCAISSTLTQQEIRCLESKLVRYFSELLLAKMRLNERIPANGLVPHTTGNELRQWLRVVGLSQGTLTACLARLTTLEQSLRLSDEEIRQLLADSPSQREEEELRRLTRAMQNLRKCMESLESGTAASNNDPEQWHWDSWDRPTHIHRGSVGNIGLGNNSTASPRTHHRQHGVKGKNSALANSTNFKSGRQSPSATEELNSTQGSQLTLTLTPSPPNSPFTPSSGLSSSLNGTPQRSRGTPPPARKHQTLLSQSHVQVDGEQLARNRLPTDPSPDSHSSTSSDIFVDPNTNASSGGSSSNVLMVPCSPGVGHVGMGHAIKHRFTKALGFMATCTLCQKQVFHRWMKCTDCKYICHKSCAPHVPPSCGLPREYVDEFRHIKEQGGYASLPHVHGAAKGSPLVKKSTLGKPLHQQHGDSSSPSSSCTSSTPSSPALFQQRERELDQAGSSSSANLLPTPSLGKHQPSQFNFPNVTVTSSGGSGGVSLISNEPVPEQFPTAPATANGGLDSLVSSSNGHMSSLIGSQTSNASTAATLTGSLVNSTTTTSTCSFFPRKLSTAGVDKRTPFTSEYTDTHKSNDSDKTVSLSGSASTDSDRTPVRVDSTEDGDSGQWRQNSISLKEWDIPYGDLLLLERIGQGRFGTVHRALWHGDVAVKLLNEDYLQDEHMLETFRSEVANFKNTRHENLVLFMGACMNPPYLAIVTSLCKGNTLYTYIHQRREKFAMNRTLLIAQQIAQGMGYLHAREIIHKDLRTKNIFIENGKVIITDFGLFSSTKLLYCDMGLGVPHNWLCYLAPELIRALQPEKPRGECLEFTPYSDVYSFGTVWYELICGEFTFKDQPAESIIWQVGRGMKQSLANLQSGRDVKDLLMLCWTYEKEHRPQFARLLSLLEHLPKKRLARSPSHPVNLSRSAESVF

GST-HYP (Drosophila) [2] = target: T3, GST-HYP (Drosophila) (UniProt Q8ML92); experiment: pull-down; GST-HYP as bait, CNK^2–549 co-expressed in S2 cells with Ha-RAS^V12, Pyo-RAF, V5-KSR and Myc-MEK (RRKM); total lysates, overnight at 4 °C; immunoblot
T3 sequence: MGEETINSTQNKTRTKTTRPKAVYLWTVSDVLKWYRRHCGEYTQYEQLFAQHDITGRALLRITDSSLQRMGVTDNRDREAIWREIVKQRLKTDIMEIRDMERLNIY

GST-HYP (Drosophila) [3] = target: T3, GST-HYP (Drosophila); experiment: pull-down; GST-HYP as bait, Flag-CNK^2–549 variants co-expressed in S2 cells without other pathway components (binary CNK–HYP interaction); total lysates, overnight at 4 °C; immunoblot
[4] = target: T4, GST-CNK^2–384 (Drosophila) (UniProt Q7KNQ9); experiment: pull-down; GST-CNK fragments as bait; S2 cells co-transfected with Pyo-HYP, V5-KSR and Myc-MEK alone, in pairs or all three; total lysates in Triton lysis buffer (50 mM Tris pH 7.5, 150 mM NaCl, 0.2% Triton X-100), overnight at 4 °C; immunoblot
T4 sequence: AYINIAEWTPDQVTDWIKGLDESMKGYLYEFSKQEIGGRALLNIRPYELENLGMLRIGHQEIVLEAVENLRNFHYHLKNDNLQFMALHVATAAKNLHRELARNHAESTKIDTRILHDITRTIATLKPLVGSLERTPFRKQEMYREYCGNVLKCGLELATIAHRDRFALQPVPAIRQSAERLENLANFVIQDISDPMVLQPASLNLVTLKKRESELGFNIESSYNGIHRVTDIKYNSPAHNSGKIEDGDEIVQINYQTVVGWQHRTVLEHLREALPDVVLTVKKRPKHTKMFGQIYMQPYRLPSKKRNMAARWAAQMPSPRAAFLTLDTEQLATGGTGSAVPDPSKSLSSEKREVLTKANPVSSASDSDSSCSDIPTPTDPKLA

[5] = target: T5, GST-CNK^2–549 (Drosophila) (UniProt Q7KNQ9); experiment: as above
T5 sequence: T1 sequence

[6] = target: T1, Flag-CNK^2–549 (Drosophila); experiment: pull-down; GST-HYP as bait, CNK^2–549 co-expressed in S2 cells with Ha-RAS^V12, Pyo-RAF, V5-KSR and Myc-MEK (RRKM); total lysates, overnight at 4 °C; immunoblot
CNK^2–330 (Drosophila) = target: T6, CNK^2–330 (Drosophila) (UniProt Q7KNQ9); experiment: cryo-EM structure; 6 µM KSR–MEK complex mixed with 6.7 µM CNK–HYP complex, 1 mM MgCl2, 1 mM AMP–PNP, 50 µM trametinib, 4 °C; both purified
T6 sequence: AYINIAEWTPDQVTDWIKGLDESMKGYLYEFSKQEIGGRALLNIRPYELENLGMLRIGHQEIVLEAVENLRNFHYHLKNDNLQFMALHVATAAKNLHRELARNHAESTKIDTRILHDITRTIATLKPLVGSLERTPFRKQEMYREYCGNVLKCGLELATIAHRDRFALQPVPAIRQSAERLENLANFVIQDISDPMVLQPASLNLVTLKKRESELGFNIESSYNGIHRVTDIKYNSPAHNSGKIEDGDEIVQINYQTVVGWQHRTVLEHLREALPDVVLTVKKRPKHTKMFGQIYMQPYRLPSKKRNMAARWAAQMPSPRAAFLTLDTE

B1: Flag-CNK^2–549 I123D (domain or fragment, UniProt Q7KNQ9 2-549)
chain: T1 sequence with I122D
binding (GST-HYP (Drosophila) [2]): binds
binding (GST-HYP (Drosophila) [3]): binds

B3: Flag-CNK^2–549 K283D (domain or fragment, UniProt Q7KNQ9 2-549)
chain: T1 sequence with K282D
binding (GST-HYP (Drosophila) [3]): binds

B4: Flag-CNK^2–549 D81R_K283D (domain or fragment, UniProt Q7KNQ9 2-549)
chain: T1 sequence with D80R, K282D
binding (GST-HYP (Drosophila) [2]): binds
binding (GST-HYP (Drosophila) [3]): binds

B5: Flag-CNK^2–549 D81R (domain or fragment, UniProt Q7KNQ9 2-549)
chain: T1 sequence with D80R
binding (GST-HYP (Drosophila) [3]): binds

B9: Flag-CNK^2–549 D195K (domain or fragment, UniProt Q7KNQ9 2-549)
chain: T1 sequence with D194K
binding (GST-HYP (Drosophila) [3]): binds

B11: V5-KSR E926R (protein, UniProt Q24171 1-966)
chain: T2 sequence with E926R
binding [6]: binds

B12: V5-KSR R913E (protein, UniProt Q24171 1-966)
chain: T2 sequence with R913E
binding [1]: binds

Results, then the molecule that gave them:

binding [1]: binds
binding (V5-KSR (Drosophila)): binds
Molecule: Myc-MEK E323R (from UniProt Q24324 1-396)

binding (GST-HYP (Drosophila) [2]): binds
binding (GST-HYP (Drosophila) [3]): binds
B2: Flag-CNK^2–549 L152D (domain or fragment, UniProt Q7KNQ9 2-549)
chain: T1 sequence with L151D

binding (GST-HYP (Drosophila) [3]): binds
B6: Flag-CNK^2–549 Q200A (domain or fragment, UniProt Q7KNQ9 2-549)
chain: T1 sequence with Q199A

binding (GST-HYP (Drosophila) [3]): binds
B7: Flag-CNK^2–549 M197E (domain or fragment, UniProt Q7KNQ9 2-549)
chain: T1 sequence with M196E

binding (GST-HYP (Drosophila) [3]): binds
B8: Flag-CNK^2–549 V198E (domain or fragment, UniProt Q7KNQ9 2-549)
chain: T1 sequence with V197E

binding [4]: binds
binding [5]: binds
B10: Pyo-HYP (protein, UniProt Q8ML92 2-106)
chain: GEETINSTQNKTRTKTTRPKAVYLWTVSDVLKWYRRHCGEYTQYEQLFAQHDITGRALLRITDSSLQRMGVTDNRDREAIWREIVKQRLKTDIMEIRDMERLNIY

binding (CNK^2–330 (Drosophila)): binds
B13: KSR^654–966 (domain or fragment, UniProt Q24171 654-966)
chain: TEDGDSGQWRQNSISLKEWDIPYGDLLLLERIGQGRFGTVHRALWHGDVAVKLLNEDYLQDEHMLETFRSEVANFKNTRHENLVLFMGACMNPPYLAIVTSLCKGNTLYTYIHQRREKFAMNRTLLIAQQIAQGMGYLHAREIIHKDLRTKNIFIENGKVIITDFGLFSSTKLLYCDMGLGVPHNWLCYLAPELIRALQPEKPRGECLEFTPYSDVYSFGTVWYELICGEFTFKDQPAESIIWQVGRGMKQSLANLQSGRDVKDLLMLCWTYEKEHRPQFARLLSLLEHLPKKRLARSPSHPVNLSRSAESVF
